{"source": "PubChem BioAssay AID2417", "about": "(National Center for Advancing Translational Sciences (NCATS), 2010)", "note": "The campaign covered roughly 140,000 compounds. About 4,300 (3.1%) were called active. The shares of active, inactive and inconclusive entries below differ from those in the screen.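 The calls were made as follows: active = readout at or below -70, meaning at least 70% loss of cells showing the perinucleolar compartment, a nuclear body marking cancer cells; inconclusive = readout between -30 and a set limit; inactive = the rest.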", "data": [{"assay": "High Content Assay for Compounds that inhibit the Assembly of the Perinucleolar Compartment;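 also: plate controls were DMSO wells for no effect and camptothecin positive control wells for full effect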", "settings": "PC3M PTB-GFP, PNC prevalence imaging, 16 h; at 10 µM; stronger effect = lower value", "outline": "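PC3M cells stably expressing PTB-GFP, 750–1000 cells/well, treated 16 h at 37 °C with compound (23 nl of library stock), in duplicate. After paraformaldehyde fixation and Hoechst stain, imaged at 20x; PNC prevalence scored by image analysis.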", "values": [{"smiles": "Cc1cc(C)c(NC(=S)NC(=O)c2c(Cl)c(C)nn2C)c([N+](=O)[O-])c1", "activity change (PNC), negative = inhibition": "inconclusive: -41.2%"}, {"smiles": "O=C(COC(=O)CN1C(=O)c2ccccc2C1=O)Nc1ncc(Cl)cc1Cl", "activity change (PNC), negative = inhibition": "inactive: 38.2%"}, {"smiles": "O=C(O)C12CC3CC(C1)CC(n1ncc(N4CCN(c5ccccc5)CC4)c(Cl)c1=O)(C3)C2", "activity change (PNC), negative = inhibition": "inactive: -8.79%"}, {"smiles": "CN(CCNC(=O)c1cn(C)c2ccc(S(=O)(=O)N3CCCC3)cc2c1=O)CCc1ccccc1", "activity change (PNC), negative = inhibition": "inconclusive: -30.5%"}, {"smiles": "COc1ccc(N2C(=O)CC(N3CCOCC3)C2=O)cc1", "note": "(stereo not drawn)", "activity change (PNC), negative = inhibition": "inconclusive: -33.8%"}, {"smiles": "COc1ccc(/C(O)=C2/C(=O)C(=O)N(CCN3CCOCC3)C2c2ccc(C)cc2)cc1", "note": "(stereo not drawn)", "activity change (PNC), negative = inhibition": "inactive: 44.6%"}, {"smiles": "CCCSc1nnc(-c2c[nH]c3ccccc23)n1C", "activity change (PNC), negative = inhibition": "inconclusive: -35.3%"}, {"smiles": "COc1ccc(COc2ccccc2C(=O)NCc2ccccc2)cc1F", "activity change (PNC), negative = inhibition": "inactive: 16.2%"}, {"smiles": "CCOC(=O)C12CNC(=O)C(C(=O)OCC)(CNC1=O)C2", "activity change (PNC), negative = inhibition": "inconclusive: -34.7%"}, {"smiles": "NC(=O)c1ccccc1NS(=O)(=O)Cc1ccc(Cl)cc1", "activity change (PNC), negative = inhibition": "inactive: -26.3%"}, {"smiles": "CCSc1nc(O)c(C2OC(=O)c3c2ccc(OC)c3OC)c(=O)n1CC", "note": "(stereo not drawn)", "activity change (PNC), negative = inhibition": "active: -122%"}, {"smiles": "Cc1ccc(C(=O)N2CCC(C)CC2)cc1C", "activity change (PNC), negative = inhibition": "inactive: 16.2%"}, {"smiles": "Cc1c(NC(=O)Cc2ccccc2)cccc1C(=O)NN1C(=O)c2ccccc2C1=O", "activity change (PNC), negative = inhibition": "inconclusive: -41.6%"}, {"smiles": "Cc1cccc(NC(=O)CS(=O)(=O)c2cn(C)c3ccccc23)c1C", "activity change (PNC), negative = inhibition": "inactive: 33%"}, {"smiles": "COC(=O)C(Cc1ccccc1)NC(=O)C(CC(C)C)NC(=O)OC(C)(C)C", "note": "(stereo not drawn)", "activity change (PNC), negative = inhibition": "active: -112%"}, {"smiles": "CCn1c(N)c(C(=O)NCc2ccco2)sc1=S", "activity change (PNC), negative = inhibition": "inconclusive: -60.5%"}, {"smiles": "CCOc1ccc(C(C)(N)C(=O)O)cc1", "note": "(stereo not drawn)", "activity change (PNC), negative = inhibition": "inconclusive: -48.4%"}, {"smiles": "O=C(COc1ccccc1)Nc1ccccc1NS(=O)(=O)c1cccs1", "activity change (PNC), negative = inhibition": "active: -99.7%"}, {"smiles": "CCOc1cc(/C=C/C(=O)c2ccc(O)cc2)ccc1OCC(=O)N(C)C", "activity change (PNC), negative = inhibition": "inconclusive: -32.6%"}, {"smiles": "c1cc2c(cc1C1CCCN1)OCCCO2", "note": "(stereo not drawn)", "activity change (PNC), negative = inhibition": "inconclusive: -32.9%"}, {"smiles": "Cc1ccccc1OCc1nnc(SCC(=O)Nc2ccc3nc(SCC(=O)NC(C)(C)C)sc3c2)n1C", "activity change (PNC), negative = inhibition": "inactive: -13.3%"}, {"smiles": "Cn1c(=O)c(NCCO)c2c3c(cccc31)C(=O)c1ccccc1-2", "activity change (PNC), negative = inhibition": "active: -123%"}, {"smiles": "COc1ccc(NC(=O)CSc2nc3c(c(=O)n2-c2ccccc2OC)SCC3)cc1", "activity change (PNC), negative = inhibition": "inactive: -24.3%"}, {"smiles": "C=CCN1C(=NC(=O)CCC(=O)O)SC2CS(=O)(=O)CC21", "note": "(stereo not drawn)", "activity change (PNC), negative = inhibition": "inactive: -11.6%"}, {"smiles": "CCCCn1c(SCn2nnc3ccccc3c2=O)nc2cc(S(N)(=O)=O)ccc21", "activity change (PNC), negative = inhibition": "inconclusive: -33.6%"}, {"smiles": "CCN(c1cccc(C)c1)S(=O)(=O)c1ccc2c3c(cccc13)C(=O)N2", "activity change (PNC), negative = inhibition": "inconclusive: -54.1%"}, {"smiles": "COn1c(=O)c(-c2cccs2)[n+]([O-])c2ccccc21", "activity change (PNC), negative = inhibition": "inconclusive: -39.7%"}, {"smiles": "Cc1ccc(-c2nc(N3CCOCC3)sc2C(=O)N2CCCCC2)cc1", "activity change (PNC), negative = inhibition": "inactive: 24.4%"}, {"smiles": "COc1ccc(N(CC(=O)NC2CCCC2)C(=O)Cn2nnc(-c3ccc(F)cc3)n2)cc1OC", "activity change (PNC), negative = inhibition": "inconclusive: -40%"}, {"smiles": "Cc1cc(=O)oc(C)c1C(=O)NCCCN1CCN(c2ccccc2F)CC1", "activity change (PNC), negative = inhibition": "inconclusive: -33.6%"}, {"smiles": "COc1ccc(CCN=C(N)NS(=O)(=O)c2ccc3ccccc3c2)cc1", "activity change (PNC), negative = inhibition": "inactive: 15%"}, {"smiles": "COCCN(C(=O)Nc1ccccc1)c1ccccc1C", "activity change (PNC), negative = inhibition": "active: -100%"}, {"smiles": "COc1ccccc1N1CCN(C(=O)c2oc3cc(C)c(C)cc3c2C)CC1", "activity change (PNC), negative = inhibition": "inconclusive: -76.1%"}, {"smiles": "CCCc1cc(=O)[nH]c(SCc2ccc(Cl)cc2)n1", "activity change (PNC), negative = inhibition": "inactive: 31.8%"}, {"smiles": "CCCCC(CC)Cn1c(O)c(/C=C2\\C=NN=C2c2ccccc2)sc1=S", "note": "(stereo not drawn)", "activity change (PNC), negative = inhibition": "inconclusive: -35.8%"}, {"smiles": "CCOC(=O)C1=C(C)N(c2ccccc2)C(=O)C1", "activity change (PNC), negative = inhibition": "inconclusive: -38.8%"}, {"smiles": "O=C(Cc1cccs1)N/N=C/C=C\\c1ccco1", "activity change (PNC), negative = inhibition": "inactive: 50.8%"}, {"smiles": "Cc1ccc(Nc2ncccc2C(N)=O)cc1[N+](=O)[O-]", "activity change (PNC), negative = inhibition": "inactive: 45.5%"}, {"smiles": "CCN(CC)C(=S)SSC(=S)N(CC)CC", "activity change (PNC), negative = inhibition": "inconclusive: -76.9%"}, {"smiles": "Cc1nn(C)c(C)c1NC(=O)CCCSc1nc(-c2ccco2)cc(C(F)(F)F)n1", "activity change (PNC), negative = inhibition": "inconclusive: -31%"}, {"smiles": "O=C(OC(C(=O)Nc1ccc(Cl)c(C(F)(F)F)c1)c1ccccc1)C1=COCCO1", "note": "(stereo not drawn)", "activity change (PNC), negative = inhibition": "inconclusive: -61.1%"}, {"smiles": "N#C/C(=C\\c1ccc(N2CCOCC2)o1)c1ccccc1", "activity change (PNC), negative = inhibition": "active: -90.1%"}, {"smiles": "O=C(Nn1c(O)c(C=C2N=c3ccccc3=N2)sc1=S)c1ccccc1Cl", "activity change (PNC), negative = inhibition": "inactive: 12.7%"}, {"smiles": "COc1ccccc1/C=C/C=N/n1c(-c2ccncc2)n[nH]c1=S", "activity change (PNC), negative = inhibition": "inconclusive: -39.2%"}, {"smiles": "Cc1ccc2ccc(C(Nc3ccccn3)c3ccccc3)c(O)c2n1", "note": "(stereo not drawn)", "activity change (PNC), negative = inhibition": "active: -81.6%"}, {"smiles": "COc1ccc(/C=C/C(=O)C2C(=O)C=C(C)OC2=O)cc1O", "note": "(stereo not drawn)", "activity change (PNC), negative = inhibition": "inactive: -20%"}, {"smiles": "COCCn1c(C)cc(C(=O)COC(=O)C23CC4CC(CC(O)(C4)C2)C3)c1C", "activity change (PNC), negative = inhibition": "inconclusive: -78.6%"}, {"smiles": "CCNc1nc2c(c(=O)[nH]c(=O)n2C)n1Cc1ccc(F)cc1", "activity change (PNC), negative = inhibition": "inconclusive: -50.3%"}, {"smiles": "Cc1ccc(NC(=O)Nc2ccccc2)cc1[N+](=O)[O-]", "activity change (PNC), negative = inhibition": "inconclusive: -44.5%"}, {"smiles": "CCOC(=O)C1=C(C)N(CCCC(=O)O)C(=O)NC1c1ccc(OC)cc1", "note": "(stereo not drawn)", "activity change (PNC), negative = inhibition": "inconclusive: -61.8%"}, {"smiles": "c1coc(C2Nc3ccccc3C3OCCC23)c1", "note": "(stereo not drawn)", "activity change (PNC), negative = inhibition": "inactive: 42.1%"}, {"smiles": "CC(NC(=O)c1ccco1)C(=O)Nc1nc(-c2ccccn2)cs1", "note": "(stereo not drawn)", "activity change (PNC), negative = inhibition": "inconclusive: -45%"}, {"smiles": "COc1cc(/C=N/Nc2ccc(Cl)cc2)ccc1OC(=O)c1cccs1", "activity change (PNC), negative = inhibition": "inactive: 56.9%"}, {"smiles": "COC(=O)[C@H]1C[C@@H]1[C@H](NC(=O)OCc1ccccc1)c1ccccc1", "activity change (PNC), negative = inhibition": "inactive: 61.3%"}, {"smiles": "CC(C)Oc1ccc(C(CC(=O)NCCCN(C)C)c2ccc(F)cc2)cc1", "note": "(stereo not drawn)", "activity change (PNC), negative = inhibition": "inconclusive: -31.4%"}, {"smiles": "COC(=O)c1sccc1NC(=O)CN1CCN(c2ccc(F)cc2)CC1", "activity change (PNC), negative = inhibition": "inconclusive: -47.2%"}, {"smiles": "COc1ccccc1S(=O)(=O)Cc1ccc(C(=O)NCc2ccc3c(c2)OCO3)o1", "activity change (PNC), negative = inhibition": "inconclusive: -61.5%"}, {"smiles": "COC(=O)C1=C(C)NC(C)=C(C(=O)OC)C1c1ccc(OC(=O)c2oc3ccccc3c2C)c(OC)c1", "activity change (PNC), negative = inhibition": "inactive: 44%"}]}]}
